{"source": "PubChem BioAssay AID1259424 (University of Nebraska Medical Center, 2018)", "aim": "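Rank knockdowns across the genome by resemblance to the KSR1 depletion profile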 (primary screen)", "system": "human HCT116 colon cancer cells", "reagents": "siRNA pool against human genes, 50 nM", "measured": "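Six signature mRNAs by branched-DNA multiplex assay, scaled to two housekeeping genes and non-targeting median, log2; matched to mean KSR1 knockdown profile by Pearson correlation and euclidean distance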", "reading the numbers": "mean correlation with KSR1 profile: higher = expression change more like KSR1 knockdown", "note": "Shown is one part, drawn at random, of about 14,000 reagents. 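Higher correlation or smaller distance means closer resemblance to KSR1 loss; control wells, including KSR1 knockdowns, recur on many plates.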 Not all columns of the deposit are shown. Reagent sequences are not shown. The record does not give: the time to read-out."}
{"gene": "SLC25A6", "mean correlation with KSR1 profile": 0.121}
{"gene": "MAN2A1", "mean correlation with KSR1 profile": 0.176}
{"gene": "CHID1", "mean correlation with KSR1 profile": -0.11}
{"gene": "CSDC2", "mean correlation with KSR1 profile": 0.247}
{"gene": "STK10", "mean correlation with KSR1 profile": 0.0608}
{"gene": "MYL9", "mean correlation with KSR1 profile": 0.608}
{"gene": "PLEKHA8", "mean correlation with KSR1 profile": -0.0631}
{"gene": "FN1", "mean correlation with KSR1 profile": -0.00958}
{"gene": "MASP2", "mean correlation with KSR1 profile": 0.00438}
{"gene": "RAI2", "mean correlation with KSR1 profile": -0.354}
{"gene": "TRIP4", "mean correlation with KSR1 profile": -0.102}
{"gene": "DEFB103B", "mean correlation with KSR1 profile": -0.0334}
{"gene": "PDHB", "mean correlation with KSR1 profile": -0.227}
{"gene": "KLHL26", "mean correlation with KSR1 profile": -0.263}
{"gene": "RCC1L", "mean correlation with KSR1 profile": 0.59}
{"gene": "NBPF14", "mean correlation with KSR1 profile": -0.499}
{"gene": "RASA1", "mean correlation with KSR1 profile": -0.499}
{"gene": "C19orf53", "mean correlation with KSR1 profile": -0.2}
{"gene": "GUCY2C", "mean correlation with KSR1 profile": 0.128}
{"gene": "MICAL1", "mean correlation with KSR1 profile": -0.117}
{"gene": "MAP2", "mean correlation with KSR1 profile": -0.667}
{"gene": "SHISAL1", "mean correlation with KSR1 profile": -0.79}
{"gene": "S100A9", "mean correlation with KSR1 profile": -0.717}
{"gene": "TXK", "mean correlation with KSR1 profile": 0.742}
{"gene": "COP1", "mean correlation with KSR1 profile": -0.294}
{"gene": "PTPN5", "mean correlation with KSR1 profile": 0.642}
{"gene": "FGFRL1", "mean correlation with KSR1 profile": -0.339}
{"gene": "ATIC", "mean correlation with KSR1 profile": -0.244}
